# Source: PubChem BioAssay AID587 (National Center for Advancing Translational Sciences (NCATS), 2007)
# Among all 59,000 compounds or so, about 35 (0.06%) were called active. This list was built around the results that the source calls inconclusive (neither active nor inactive); the mix of calls is not that of the screen. Rule as the data show it: active = max dye-equivalent concentration above about 10 nM; inconclusive = between about 1.1 nM and that limit; inactive = weaker than that.
# Test: qHTS Assay for Spectroscopic Profiling in Texas Red Spectral Region
# Settings: Compound fluorescence, Texas Red channel, 547/618 nm; hits give high values
# Procedure, shortened: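 Fluorescence at ex 547/em 618 nm, normalized against an on-plate Texas Red standard series to give dye-equivalent concentration per compound concentration. Buffer 100 mM Tris, pH 8.0; 15 min RT incubation before CCD imaging.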
Compound,max dye-equivalent concentration,outcome
COC(=O)C1=C(N)OC(C)=C(C(C)=O)C12C(=O)N(C)c1ccccc12 (stereo unspecified),inconclusive: 1.1 nM,
C[C@H](Br)CN(C[C@H](C)Br)c1ccc2c(c1)Cc1ccccc1-2,inactive,
COc1ccc(Cn2c(O)c(C=NCCCn3ccnc3)c(=O)[nH]c2=O)cc1,inactive,
COc1cc2c(cc1OC)[C@]13CCN4CC5=CCO[C@@H]6CC(=O)N2[C@@H]1[C@H]6[C@@H]5C[C@H]43,inactive,
N#CC(C#N)=Cc1cc(O)c(O)c(O)c1,inactive,
CCNC(=O)[C@@H]1O[C@@H](n2cnc3c(N)ncnc32)[C@@H](O)[C@H]1O,inactive,
CC1CCN2c3nc4ccccn4c(=O)c3CC3(C(=O)N(C)C(=O)N(C)C3=O)C2C1 (stereo unspecified),inconclusive: 2.2 nM,
CN1C[C@H](CNC(=O)OCc2ccccc2)C[C@@H]2c3cccc4c3c(cn4C)C[C@H]21,inactive,
O=C(NCNC(=O)N[C@H]1C(=O)NC(=O)N1CO)N[C@H]1C(=O)NC(=O)N1CO,inconclusive: 1.1 nM,
Cn1c(O)c(C=NCCCN2CCCC2=O)c(=O)n(C)c1=O,inconclusive: 1.2 nM,
CN1C[C@@H](CNC(=O)OCc2ccccc2)C[C@H]2c3cccc4c3c(cn4C)C[C@@H]21,inactive,
N[C@]1(C(=O)O)CC[C@@H](C(=O)O)C1,inconclusive: 1.6 nM,
CN(C)c1ccc(N=Cc2c(O)n(CCC3=CCCCC3)c(=O)[nH]c2=O)cc1,inconclusive: 1.2 nM,
CN(C)C=C1C(=O)N(C2CCCCC2)C(=O)N(C2CCCCC2)C1=O,inconclusive: 1.3 nM,
O=C(O)C[O][Sb][O]CC(=O)O,inconclusive: 1.2 nM,
CCOC(=O)C1C(=O)NC2(C)CC1c1cc(OC)ccc1O2 (stereo unspecified),inconclusive: 1.2 nM,
COc1ccc(C2=NCC(=O)N(CC(=O)NCc3ccco3)c3sc4c(c32)CCCC4)cc1,inconclusive: 1.4 nM,
CCOC(=O)c1c(C)n(CCN2CCN(C)CC2)c2ccc(OC)cc12,inconclusive: 1.6 nM,
COc1ccc(Cl)cc1NC1=NCC(C)S1 (stereo unspecified),inconclusive: 1.4 nM,
NNc1c(C(N)=O)c2c(N)ncnc2n1[C@@H]1O[C@H](CO)[C@@H](O)[C@@H]1O,inactive,
N[C@H](Cn1oc(=O)[nH]c1=O)C(=O)O,inactive,

Compound,max dye-equivalent concentration,outcome
N[C@@H](Cc1cc(O)c(O)cc1O)C(=O)O,inactive,
C=C[C@@H]1CN2CC[C@H]1C[C@H]2[C@@H](O)c1ccnc2ccccc12,inactive,
COC(=O)C(C)Oc1cc(C)cc2oc(=O)c3c(c12)CCC3 (stereo unspecified),inconclusive: 1.2 nM,
O=c1cccc2n1C[C@@H]1C[C@H]2CN2CCCC[C@H]12,inactive,
N[C@@H](CCP(=O)(O)O)C(=O)O,inconclusive: 1.6 nM,
Cc1cc(C)c(C(=O)CN2CCOCC2)c(C)c1,inconclusive: 1.6 nM,
CCCCn1c(O)c(C(C)=Nc2cccc(C(=O)O)c2)c(=O)[nH]c1=O,inconclusive: 1.3 nM,
CCCn1c(=O)c2[nH]c(C3CCCC3)nc2n(CCCOC(=O)c2ccc(S(=O)(=O)F)cc2)c1=O,inconclusive: 1.1 nM,
Cc1nc2cc(C(F)(F)F)ccc2n1C1CCN(Cc2nnnn2Cc2ccc3c(c2)OCO3)CC1,inconclusive: 1.1 nM,
CN1CC=C2C(C#N)=C(N)C(C#N)(C#N)C(c3ccncc3)C2C1 (stereo unspecified),inconclusive: 1.2 nM,
CC(=O)[C@@H]1CC[C@H]2[C@H]3CC[C@H]4C[C@@H](O)CC[C@]4(C)[C@@H]3CC[C@]12C,inactive,
C[C@H]1CCC[C@@H](O)CCC/C=C/c2cc(O)cc(O)c2C(=O)O1,inconclusive: 1.4 nM,
O=C(C(Cc1ccccc1)NS(=O)(=O)c1cccc2nsnc12)N1CCC2(CC1)OCCO2 (stereo unspecified),inconclusive: 1.1 nM,
CC(=O)c1cccc(OCC(O)CN2CC=C(c3ccccc3)CC2)c1 (stereo unspecified),inconclusive: 1.8 nM,
C[C@@H]1O[C@@H](O[C@H]2C[C@@H](O)[C@]3(CO)[C@@H]4[C@@H](O)C[C@]5(C)[C@H]([C@@H]6COC(=O)C6)CC[C@@]5(O)[C@H]4CC[C@@]3(O)C2)[C@H](O)[C@H](O)[C@@H]1O,inactive,
C=CCn1c(O)c(C(C)=NC2CC2)c(=O)[nH]c1=O,inconclusive: 1.4 nM,
CCC(=NCc1cccnc1)c1c(O)n(C2CCCCC2)c(=O)[nH]c1=O,inconclusive: 1.4 nM,
O=C(CCCN1CCC2(CC1)C(=O)NCN2c1ccccc1)c1ccc(F)cc1,inconclusive: 1.1 nM,
Nc1nc(N)c(N=Nc2ccc([As](=O)(O)O)cc2)c(=O)[nH]1,inactive,
NCC1(CC(=O)O)CCCCC1,inconclusive: 1.1 nM,
Cc1cccc(-n2c(O)c(C=NCc3cccnc3)c(=O)[nH]c2=O)c1C,inconclusive: 1.4 nM,

# A second format for some results above:
Compound | max dye-equivalent concentration | outcome
C[C@H]1CCC[C@@H](O)CCC/C=C/c2cc(O)cc(O)c2C(=O)O1 | inconclusive: 1.4 nM | 
O=C(C(Cc1ccccc1)NS(=O)(=O)c1cccc2nsnc12)N1CCC2(CC1)OCCO2 (stereo unspecified) | inconclusive: 1.1 nM | 
CC(=O)c1cccc(OCC(O)CN2CC=C(c3ccccc3)CC2)c1 (stereo unspecified) | inconclusive: 1.8 nM | 
C[C@@H]1O[C@@H](O[C@H]2C[C@@H](O)[C@]3(CO)[C@@H]4[C@@H](O)C[C@]5(C)[C@H]([C@@H]6COC(=O)C6)CC[C@@]5(O)[C@H]4CC[C@@]3(O)C2)[C@H](O)[C@H](O)[C@@H]1O | inactive | 

# Continued:

Compound,max dye-equivalent concentration,outcome
O=C(C1CC(=O)N(c2ccc(F)c(Cl)c2)C1)N1CCC2(CC1)OCCO2 (stereo unspecified),inconclusive: 1.4 nM,
C[C@H](N)[C@@H](O)c1ccccc1,inconclusive: 1.6 nM,
CCN(CC)CCN=Cc1c(O)n(C2CCCCCC2)c(=O)[nH]c1=O,inconclusive: 1.4 nM,
O=P1(NCc2ccco2)COc2ccccc2OC1,inconclusive: 1.8 nM,
CC1=C(C(=O)N2CCC3(CC2)OCCO3)C2(CCC(C)CC2)OC1=O (stereo unspecified),inconclusive: 1.4 nM,
Cc1cc(OC(=O)CCNC(=O)OC(C)(C)C)c2c3c(c(=O)oc2c1)CCC3,inconclusive: 1.1 nM,
O=c1[nH]oc2c1CCNC2,inconclusive: 1.5 nM,inactive
OC[C@H]1CCCN2CCCC[C@@H]12,inactive,
Cc1ccnc(-n2c(-c3ccco3)nc3ccccc3c2=O)c1,inconclusive: 1.8 nM,
CN1[C@@H]2CC[C@H]1CC(OC(=O)c1cc(Cl)cc(Cl)c1)C2 (stereo partly specified),inconclusive: 1.1 nM,
CCC(=O)N1CCN(CCN=Cc2c(O)n(C)c(=O)n(C)c2=O)CC1,inconclusive: 1.3 nM,
COc1cc2c3cc1Oc1c(O)c(OC)cc4c1[C@@H](Cc1ccc(cc1)Oc1cc(ccc1O)C[C@H]3N(C)CC2)N(C)CC4,inactive,
COCCNC(=O)c1c(NC(=O)c2ccco2)n(Cc2ccccc2)c2nc3ccccc3nc12,inactive,
COC(=O)CC1NC2CCCCC2NC1=O (stereo unspecified),inconclusive: 1.1 nM,
CCn1nc(-c2ccccc2)nc2c(=O)n(C)c(=O)nc1-2,inactive,
N[C@H](Cc1c[nH]c2ccccc12)P(=O)(O)O,inconclusive: 1.3 nM,
CC1=C2[C@@H]3OC(=O)[C@H](C)[C@H]3CC[C@@]2(C)C=CC1=O,inconclusive: 1.2 nM,
Cc1ccc(N2C(=O)CC(=O)NC2=O)cc1,inconclusive: 1.6 nM,
O=CN1C[C@H]2C[C@@H](C1)c1cccc(=O)n1C2,inactive,
CCOc1ccc(Br)c(C2(O)CC(C)N(C)CC2C)c1 (stereo unspecified),inconclusive: 1.1 nM,
COc1ccc(CNCC(=O)N2CCC3(CC2)OCCO3)cc1,inconclusive: 1.5 nM,

Compound,max dye-equivalent concentration,outcome
CCCCCCCCCCCCCC(=O)O[C@H]1[C@@H](C)[C@@]2(O)[C@@H](C=C(CO)C[C@]3(O)C(=O)C(C)=C[C@@H]23)C2C(C)(C)[C@]21OC(C)=O (stereo partly specified),inactive,
Ic1ccccc1CN[C@@H]1C2CCN(CC2)[C@H]1C(c1ccccc1)c1ccccc1,inactive,
COc1cc2c(cc1OC)-c1c(O)c(OC)cc3c1[C@@H](C2)N(C)CC3,inactive,
O=P1(Nc2ccc(F)cc2)COc2ccccc2OC1,inconclusive: 1.5 nM,
CC(C)(C)[C@@]1(O)C[C@@H]2OC(=O)C[C@@]23C(=O)O[C@H]2OC(=O)[C@@H](O)[C@]231,inactive,
CCC(=Nc1ccc2c(c1)CCC2)c1c(O)n(C)c(=O)n(C)c1=O,inconclusive: 1.1 nM,
O=c1cc(C2CCNCC2)[nH][nH]1,inconclusive: 1.1 nM,
Cc1ccccc1-n1c(O)c(C=NCCN2CCOCC2)c(=O)[nH]c1=O,inconclusive: 1.1 nM,
CC[C@H](CO)NC(=O)[C@H]1C=C2c3cccc4[nH]cc(c34)C[C@H]2N(C)C1,inactive,
O=C(Cc1ccc(Cl)c(Cl)c1)N1CCCC[C@H]1CN1CCCC1,inconclusive: 2 nM,
CN1CCc2cc3c(cc2[C@@H]1[C@H]1OC(=O)c2c1ccc1c2OCO1)OCO3,inactive,
CCCN(CCC)C(=O)Cc1c(-c2ccc(Cl)cc2)nc2c(Cl)cc(Cl)cn12,inconclusive: 1.4 nM,
CCC(=Nc1ccc(OC)cc1OC)c1c(O)n(C2CCCCC2)c(=O)[nH]c1=O,inconclusive: 1.1 nM,
CO[C@@H]([CH2][Hg])CN1C(=O)c2ccccc2S1(=O)=O.Cn1c(=O)c2nc[nH]c2n(C)c1=O,inactive,
C[C@H](N)Cc1c[nH]c2ccc(O)cc12,inconclusive: 1.1 nM,
C[C@]12CC[C@H](O)C[C@@H]1CC[C@H]1[C@H]2CC[C@]2(C)C(=O)CC[C@@H]12,inconclusive: 1.9 nM,
CCCCCCn1c(O)c(C=NC2CCCCC2N)c(=O)[nH]c1=O (stereo unspecified),inconclusive: 1.4 nM,
CCCCCC[C@H]1C(=O)O[C@@H](C)[C@H](NC(=O)c2cccc(NC=O)c2O)C(=O)O[C@@H](C)[C@@H]1OC(=O)CC(C)C,inactive,
CN[C@@H](C)[C@@H](O)c1ccccc1,inconclusive: 1.3 nM,
CCN(CC)C(=O)N[C@@H]1C=C2c3cccc4[nH]cc(c34)C[C@@H]2N(C)C1,inconclusive: 1.4 nM,inactive
C[C@@]12CC[C@H]3[C@@H](CCC4=C(O)C(=O)CC[C@]43C)[C@H]1CCC2=O,inactive,
